Assay results published in patent US20180105568A1.
Results are given in words; binding and its absence hold for the method and conditions named. Some binding calls cover weakened binding; strength is not graded here.

T1: calcitonin receptor of T47D cells (human breast epithelial cell line) (human) (UniProt P30988)
T1 sequence (looked up): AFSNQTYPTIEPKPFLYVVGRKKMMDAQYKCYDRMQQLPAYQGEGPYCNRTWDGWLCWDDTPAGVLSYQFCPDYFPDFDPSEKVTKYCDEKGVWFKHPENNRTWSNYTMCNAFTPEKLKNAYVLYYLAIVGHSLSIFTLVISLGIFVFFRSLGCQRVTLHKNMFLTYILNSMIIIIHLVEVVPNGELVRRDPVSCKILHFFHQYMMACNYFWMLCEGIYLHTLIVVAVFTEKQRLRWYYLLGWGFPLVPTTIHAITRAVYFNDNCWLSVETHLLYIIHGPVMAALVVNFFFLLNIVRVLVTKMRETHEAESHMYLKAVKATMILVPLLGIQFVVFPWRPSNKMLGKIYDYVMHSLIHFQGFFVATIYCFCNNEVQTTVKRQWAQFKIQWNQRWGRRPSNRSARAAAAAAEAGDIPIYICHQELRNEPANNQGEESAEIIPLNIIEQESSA


Molecular target: T1, calcitonin receptor of T47D cells (human breast epithelial cell line) (human)
Experiment: T47D cell bioassay, read out as % cAMP binding relative to sCT

Row | Binder | binding
1 | CSNLSTCVLGKLSQELHKLQTYPRTDVGANAP (acetyl group on cysteine-1 (Ac-); C-terminal amide (-NH2)) [UGP302] | binds
2 | CSNLSTCVLGKLSQELHKLQTYPRTNTGSGTP [salmon calcitonin] | binds
